This is one part of the list. These are raw signals, not scaled to a control.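 In the initial screen, polymyxin B was used at a concentration that permeabilizes Salmonella's outer membrane but not its inner membrane. Maximum growth was set by DMSO wells with or without polymyxin B. Since plates varied, data were ranked per plate, and compounds giving the lowest OD600 advanced as hits.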
System: Salmonella enterica serovar Typhimurium SL1344
Assay: bacterial growth OD600 after 18 h with compound and polymyxin B; higher = more bacterial growth (less inhibition)
Conditions: 50 µM, Mueller-Hinton broth

Row | Structure (SMILES) | bacterial growth OD600 (polymyxin B 1 µg/mL) | bacterial growth OD600 (polymyxin B 0.75 µg/mL)
1 | CN(C(=O)c1ccc2cc[nH]c2c1)C1CCCN(Cc2ccccc2F)C1 (configuration not stated) | 0.873 | 
2 | O=C(c1cc(CCc2ccccc2)no1)N1CCCC(c2ccccc2)C1 (configuration not stated) |  | -0.004
3 | Cc1c(C(C)NC(=O)CCCN2CCCC2=O)cnn1-c1cccc2ccccc12 (configuration not stated) | 0.848 | 
4 | COCC(=O)Nc1cc(C(=O)N2CCN(C(=O)c3ccco3)CC2)c2c(c1)nc(C1CCC1)n2C |  | 0.862
5 | COc1ccccc1Oc1ncccc1CNC(=O)c1ccncc1 | 0.834 | 
6 | COc1ccc(F)c(CN2CCCC3(CCN(c4nc(C)cc(C)n4)C3)C2=O)c1 (configuration not stated) | 0.57 | 
7 | O=C(CN1Cc2ccccc2OC(c2ccsc2)C1)N1CCC(N2CCOCC2)CC1 (configuration not stated) |  | 0.836
8 | O=C1N(CCc2ccccc2)C[C@@H]2C[C@@H](c3cccn3-c3ccccn3)N3CCC[C@@]123 |  | 0.797
9 | CCCc1cc(CNC(=O)c2ccc(N3CCCN(CCC)CC3)nc2)on1 | 1.03 | 
10 | CN(Cc1ccc2nsnc2c1)Cc1nc(-c2cnccn2)no1 | 0.968 | 
11 | CC(=O)NCC(=O)NC1CCCc2c1cnn2-c1ccc(C(C)(C)C)cc1 (configuration not stated) |  | 0.006
12 | CN1CCN(C(=O)c2coc(COc3ccc(F)cc3Cl)n2)CC1 | 0.906 | 
13 | O=C(CSc1ccccn1)NC1CCCc2c1cnn2-c1ccc(F)cc1F (configuration not stated) | 0.791 | 
14 | COc1ccc(OC2CCN(C3CCCC3)CC2)c(C(=O)NCc2ccco2)c1 |  | 0.882
15 | COCCN1CCCC(CNc2nc3nonc3nc2NC2CCCC2)C1 (configuration not stated) | 0.846 | 
16 | Cc1ncc2c(c1CNC(=O)c1ccsc1)CCN(C(=O)/C=C/c1cccc(F)c1F)C2 |  | 0.762

Row | Structure (SMILES) | bacterial growth OD600 (polymyxin B 1 µg/mL) | bacterial growth OD600 (polymyxin B 0.75 µg/mL)
17 | CC(C)(C)C(=O)Nc1ccnn1C1CCN(C(=O)c2noc3c2CCCC3)CC1 | 0.912 | 
18 | COc1ccccc1C(=O)N[C@@H]1c2ccccc2C2(CCN(Cc3cc(F)ccc3F)CC2)[C@H]1OC |  | 0.961
19 | CCC(NC(=O)c1cc(NS(=O)(=O)N(C)C)cc2nc(CC(C)C)n(C)c12)c1cccs1 (configuration not stated) |  | 0.949
20 | COc1ccc(OC)c(-c2cc(Cl)c3c(c2)CC(CNC(=O)C2CCCO2)O3)c1 (configuration not stated) |  | 0.039
21 | CCc1noc(C)c1C(=O)N1CCC(CCC(=O)Nc2ccc(F)c(Cl)c2)CC1 | 1.12 | 
22 | COc1ccc(OC)c(C(=O)N(Cc2ccc(OCc3ccccn3)cc2)[C@H]2CCCCNC2=O)c1 |  | 0.77
23 | CCCC(=O)N1CCCC(C(=O)Nc2cccc(-c3ccc(F)cc3)c2)C1 (configuration not stated) | 0.569 | 
24 | COCCN(Cc1nc(-c2cc3c(cc2Cl)OCO3)oc1C)C(C)C | 1.01 | 
25 | CC#CC(=O)N1CCCC(N2CCN(Cc3ccc4c(c3)OCO4)CC2)C1 (configuration not stated) | 0.866 | 
26 | Cc1ccc(CNc2nc(CN3CCN(C=O)CC3)nc3ccccc23)cc1 |  | 0.81
27 | CCCCc1nc2cc(C(=O)NCCCOC(C)C)ccc2o1 |  | 0.836
28 | Cc1ccc(C(=O)N2CCC(C3(CCC(C)C)NC(=O)N(Cc4ccccn4)C3=O)CC2)c(C)c1 (configuration not stated) |  | 0.91
29 | O=C(Cc1ccc(F)c(F)c1)N1CCC(C2(c3cccnc3)NC(=O)N(CC3CCCO3)C2=O)CC1 (configuration not stated) |  | 0.817
30 | COc1ccc2cc(C(=O)C3CCCN(Cc4cc(C(C)C)[nH]n4)C3)ccc2c1 (configuration not stated) | 0.608 | 
31 | c1cc(CN2CCc3[nH]nc(-c4ccc5c(c4)OCO5)c3C2)ccn1 |  | 0.944
32 | O=C(c1ccccc1OC1CCN(Cc2ccccc2OCCO)CC1)N1CCCCC1 |  | 0.799

Reprinted at random: 2 records from the list, in no set order.
Row | Structure (SMILES) | bacterial growth OD600 (polymyxin B 1 µg/mL) | bacterial growth OD600 (polymyxin B 0.75 µg/mL)
7 | O=C(CN1Cc2ccccc2OC(c2ccsc2)C1)N1CCC(N2CCOCC2)CC1 (configuration not stated) |  | 0.836
18 | COc1ccccc1C(=O)N[C@@H]1c2ccccc2C2(CCN(Cc3cc(F)ccc3F)CC2)[C@H]1OC |  | 0.961

Source: the supplement of paper PMC12889115
